Source: PubChem BioAssay AID342 (DTP/NCI, 2004)
The list is a part of this screen's results and no random one: it covers a few groups of compounds. Other doses and runs of a compound may be missing. T/C gives the treated animals as a percentage of the vehicle group. Schedules are NCI's codes, read here as Q, the interval in days (D) or hours (H), X, the number of doses. Some entries hold several experiments; the values are given in rising order. Some schedule codes hold Z or #, which are not explained here. Some T/C values are followed by the survivors on the day toxicity was checked; without a count or a note in brackets, all were alive then. Some entries give survivors of the animals treated and no T/C: the source holds a T/C of zero for them, seemingly a mark for toxic or unscored doses. Counts of survivors are from the toxicity check, whose day is not always given; animals may have died later.

Tested on: Swiss mice, Sarcoma 180 sc, mean tumor weight T/C
Assay: NCI In Vivo Anticancer Drug Screen. Data for tumor model Sarcoma 180 (subcutaneous) in Swiss mice
Settings: T/C endpoint: mean tumor weight, higher T/C = larger tumour; for T/C: evaluated on day 8
Method: The antitumor activity of compounds was measured in mice bearing transplantable tumors. Survival or tumor size were measured and the results are expressed as the measurement made in the treated group (T) divided by the measurement made in the vehicle treated control group (C). The tumor model used in this assay is Sarcoma 180 (subcutaneous) in Swiss mice

[1] = dose: 4.5 mg/kg/injection, schedule: Q#A X014 (ip), vehicle: methylcellulose (MC)
[2] = dose: 23.0 mg/kg/injection, schedule: Q01DX007 (ip), vehicle: saline

O=c1[nH]c(=O)c2[nH]c(/N=N\N(CCCl)CCCl)nc2[nH]1
T/C (dose: 9.37 mg/kg/injection, schedule: Q#A X014 (ip), vehicle: saline): 67 % of control | T/C (dose: 18.75 mg/kg/injection, schedule: Q#A X014 (ip), vehicle: saline): 72 % of control | T/C (dose: 37.5 mg/kg/injection, schedule: Q#A X014 (ip), vehicle: saline): 93 % of control | T/C (dose: 75.0 mg/kg/injection, schedule: Q#A X014 (ip), vehicle: saline): 99 % of control

O=C(O)COc1ccc(N(CCCl)CCCl)cc1
T/C (dose: 2.2 mg/kg/injection, schedule: Q#A X014 (ip), vehicle: methylcellulose (MC)): 55 [5 of 6 alive] and 68 % of control | T/C (dose: 3.3 mg/kg/injection, schedule: Q#A X014 (ip), vehicle: methylcellulose (MC)): 12 and 53 % of control | T/C (dose: 5.0 mg/kg/injection, schedule: Q#A X014 (ip), vehicle: methylcellulose (MC)): 10 and 26 % of control | T/C (dose: 7.5 mg/kg/injection, schedule: Q#A X014 (ip), vehicle: methylcellulose (MC)): 10 [5 of 6 alive] and 19 % of control | T/C (dose: 10.0 mg/kg/injection, schedule: Q01DX007 (ip), vehicle: other): 6 % of control | T/C (dose: 15.0 mg/kg/injection, schedule: Q01DX007 (ip), vehicle: carboxymethylcellulose (CMC)): 15 % of control [5 of 7 alive] | T/C (dose: 15.0 mg/kg/injection, schedule: Q01DX007 (ip), vehicle: other): 7 % of control [4 of 6 alive] | T/C (dose: 22.0 mg/kg/injection, schedule: Q01DX007 (ip), vehicle: carboxymethylcellulose (CMC)): 18 % of control [5 of 7 alive] | survivor count (dose: 33.0 mg/kg/injection, schedule: Q01DX007 (ip), vehicle: carboxymethylcellulose (CMC)): 4 of 7

CO/C(N)=N\[N+](=O)[O-]
T/C (dose: 93.0 mg/kg/injection, schedule: Q01DX007 (ip), vehicle: saline): 67 % of control | T/C (dose: 140.0 mg/kg/injection, schedule: Q01DX007 (ip), vehicle: saline): 83 % of control | survivor count (dose: 280.0 mg/kg/injection, schedule: Q01DX007 (ip), vehicle: saline): 2 of 6

O=P1(N(CCCl)CCCl)OCC2CCCN21 (stereo not drawn)
T/C (dose: 15.62 mg/kg/injection, schedule: Q#A X014 (ip), vehicle: saline): 109 % of control | T/C (dose: 31.25 mg/kg/injection, schedule: Q#A X014 (ip), vehicle: saline): 65 % of control | T/C (dose: 62.5 mg/kg/injection, schedule: Q#A X014 (ip), vehicle: saline): 157 % of control | T/C (dose: 125.0 mg/kg/injection, schedule: Q#A X014 (ip), vehicle: saline): 50 % of control | T/C (dose: 250.0 mg/kg/injection, schedule: Q#A X014 (ip), vehicle: saline): 23 % of control

O=C(O)/C=C\c1ccccc1N(CCCl)CCCl
T/C [1]: 88 % of control [5 of 6 alive] | T/C (dose: 6.5 mg/kg/injection, schedule: Q#A X014 (ip), vehicle: methylcellulose (MC)): 66 % of control | T/C (dose: 6.6 mg/kg/injection, schedule: Q01DX007 (ip), vehicle: other): 72 % of control | survivor count (dose: 7.4 mg/kg/injection, schedule: Q#A X014 (ip), vehicle: other): 3 of 6 | T/C (dose: 9.9 mg/kg/injection, schedule: Q01DX007 (ip), vehicle: other): 56 % of control [5 of 6 alive] | T/C (dose: 10.0 mg/kg/injection, schedule: Q#A X014 (ip), vehicle: methylcellulose (MC)): 40 % of control | T/C (dose: 11.0 mg/kg/injection, schedule: Q#A X014 (ip), vehicle: methylcellulose (MC)): 77 % of control | T/C (dose: 11.0 mg/kg/injection, schedule: Q#A X014 (ip), vehicle: saline): 24 % of control | survivor count (dose: 11.1 mg/kg/injection, schedule: Q#A X014 (ip), vehicle: other): 1 of 6 | T/C (dose: 14.8 mg/kg/injection, schedule: Q01DX007 (ip), vehicle: other): 32 % of control [5 of 6 alive] | T/C (dose: 15.0 mg/kg/injection, schedule: Q#A X014 (ip), vehicle: methylcellulose (MC)): 27 % of control | T/C (dose: 16.5 mg/kg/injection, schedule: Q#A X014 (ip), vehicle: methylcellulose (MC)): 93 % of control [5 of 6 alive] | T/C (dose: 16.5 mg/kg/injection, schedule: Q#A X014 (ip), vehicle: saline): 21 % of control | T/C (dose: 25.0 mg/kg/injection, schedule: Q#A X014 (ip), vehicle: methylcellulose (MC)): 54 % of control | T/C (dose: 25.0 mg/kg/injection, schedule: Q#A X014 (ip), vehicle: saline): 22 % of control [4 of 6 alive] | survivor count (dose: 37.5 mg/kg/injection, schedule: Q#A X014 (ip), vehicle: methylcellulose (MC)): 2 of 6

O=P(Nc1ncccn1)(N1CC1)N1CC1
T/C (dose: 7.0 mg/kg/injection, schedule: Q01DX007 (ip), vehicle: saline): 66 and 76 % of control | T/C (dose: 10.0 mg/kg/injection, schedule: Q01DX007 (ip), vehicle: saline): 29 and 61 % of control | T/C (dose: 15.0 mg/kg/injection, schedule: Q01DX007 (ip), vehicle: saline): 27 [5 of 6 alive], 28 [4 of 6 alive], 34 % of control [5 of 6 alive] | T/C [2]: 25 % of control [5 of 6 alive] | survivor count [2]: 1 of 6 | survivor count (dose: 53.0 mg/kg/injection, schedule: Q01DX007 (ip), vehicle: saline): 0 of 6

CCOC(=O)COc1ccc(N(CCCl)CCCl)cc1
T/C (dose: 2.0 mg/kg/injection, schedule: Q#A X014 (ip), vehicle: methylcellulose (MC)): 74 % of control | T/C (dose: 3.0 mg/kg/injection, schedule: Q#A X014 (ip), vehicle: methylcellulose (MC)): 50 % of control | T/C [1]: 26 % of control | T/C (dose: 6.75 mg/kg/injection, schedule: Q#A X014 (ip), vehicle: methylcellulose (MC)): 18 % of control

OC(CNCCCl)C(O)C(O)C(O)CNCCCl (stereo not drawn)
T/C (dose: 2.4 mg/kg/injection, schedule: Q#A X014 (ip), vehicle: carboxymethylcellulose (CMC)): 75 % of control | T/C (dose: 4.87 mg/kg/injection, schedule: Q#A X014 (ip), vehicle: carboxymethylcellulose (CMC)): 58 % of control | T/C (dose: 9.75 mg/kg/injection, schedule: Q#A X014 (ip), vehicle: carboxymethylcellulose (CMC)): 58 % of control | T/C (dose: 19.5 mg/kg/injection, schedule: Q#A X014 (ip), vehicle: carboxymethylcellulose (CMC)): 49 % of control [7 of 10 alive]

O=NN1CCN/C1=N\[N+](=O)[O-]
T/C (dose: 20.0 mg/kg/injection, schedule: Q#A X014 (ip), vehicle: methylcellulose (MC)): 149 % of control | T/C (dose: 40.0 mg/kg/injection, schedule: Q#A X014 (ip), vehicle: methylcellulose (MC)): 130 % of control [4 of 6 alive] | T/C (dose: 80.0 mg/kg/injection, schedule: Q#A X014 (ip), vehicle: methylcellulose (MC)): 113 % of control [5 of 6 alive]

CC[C@H](C)[C@@H]1NC(=O)/C(=C(\C)O)C1=O
T/C (dose: 12.5 mg/kg/injection, schedule: Q01DX007 (ip), vehicle: carboxymethylcellulose (CMC)): 93 % of control | T/C (dose: 25.0 mg/kg/injection, schedule: Q01DX007 (ip), vehicle: carboxymethylcellulose (CMC)): 113 % of control [5 of 6 alive] | survivor count (dose: 50.0 mg/kg/injection, schedule: Q01DX007 (ip), vehicle: carboxymethylcellulose (CMC)): 3 of 6 | survivor count (dose: 100.0 mg/kg/injection, schedule: Q01DX007 (ip), vehicle: carboxymethylcellulose (CMC)): 0 of 6
